The list shows a part of the results, in another mix than the full data. Single values of this set are uncertain.
The targets below were run with COC(=O)/C=C/c1ccccc1 [methyl cinnamate] (assay: log2 ratio of iodoacetamide-alkyne labeling of the cysteine site, DMSO over compound (competition); higher = stronger covalent engagement of the cysteine by the compound, active = 1 or more). Conditions: 500 µM; treatment time 1 h; system: HEK293T cell lysate.
Outline: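 For each cysteine, the log2 competition ratio is mean control-channel reporter intensity over mean compound-channel reporter intensity. HEK293T lysate (2 mg/mL) was exposed to vehicle or electrophile (500 µM, 1 h, ambient temperature), labelled with iodoacetamide alkyne (1 h), clicked to sCIP-TMT reagents, digested overnight with trypsin at 37 °C, streptavidin-enriched and analysed by Orbitrap Eclipse LC-MS/MS with FAIMS and FragPipe. Cysteines quantified in only one of three replicates, each with duplicate channels, were excluded.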

Amino acid sequences for entries named in this document (tags omitted). A change or cut given only in a name is not applied to a line headed by its entry.
UniProt O60318: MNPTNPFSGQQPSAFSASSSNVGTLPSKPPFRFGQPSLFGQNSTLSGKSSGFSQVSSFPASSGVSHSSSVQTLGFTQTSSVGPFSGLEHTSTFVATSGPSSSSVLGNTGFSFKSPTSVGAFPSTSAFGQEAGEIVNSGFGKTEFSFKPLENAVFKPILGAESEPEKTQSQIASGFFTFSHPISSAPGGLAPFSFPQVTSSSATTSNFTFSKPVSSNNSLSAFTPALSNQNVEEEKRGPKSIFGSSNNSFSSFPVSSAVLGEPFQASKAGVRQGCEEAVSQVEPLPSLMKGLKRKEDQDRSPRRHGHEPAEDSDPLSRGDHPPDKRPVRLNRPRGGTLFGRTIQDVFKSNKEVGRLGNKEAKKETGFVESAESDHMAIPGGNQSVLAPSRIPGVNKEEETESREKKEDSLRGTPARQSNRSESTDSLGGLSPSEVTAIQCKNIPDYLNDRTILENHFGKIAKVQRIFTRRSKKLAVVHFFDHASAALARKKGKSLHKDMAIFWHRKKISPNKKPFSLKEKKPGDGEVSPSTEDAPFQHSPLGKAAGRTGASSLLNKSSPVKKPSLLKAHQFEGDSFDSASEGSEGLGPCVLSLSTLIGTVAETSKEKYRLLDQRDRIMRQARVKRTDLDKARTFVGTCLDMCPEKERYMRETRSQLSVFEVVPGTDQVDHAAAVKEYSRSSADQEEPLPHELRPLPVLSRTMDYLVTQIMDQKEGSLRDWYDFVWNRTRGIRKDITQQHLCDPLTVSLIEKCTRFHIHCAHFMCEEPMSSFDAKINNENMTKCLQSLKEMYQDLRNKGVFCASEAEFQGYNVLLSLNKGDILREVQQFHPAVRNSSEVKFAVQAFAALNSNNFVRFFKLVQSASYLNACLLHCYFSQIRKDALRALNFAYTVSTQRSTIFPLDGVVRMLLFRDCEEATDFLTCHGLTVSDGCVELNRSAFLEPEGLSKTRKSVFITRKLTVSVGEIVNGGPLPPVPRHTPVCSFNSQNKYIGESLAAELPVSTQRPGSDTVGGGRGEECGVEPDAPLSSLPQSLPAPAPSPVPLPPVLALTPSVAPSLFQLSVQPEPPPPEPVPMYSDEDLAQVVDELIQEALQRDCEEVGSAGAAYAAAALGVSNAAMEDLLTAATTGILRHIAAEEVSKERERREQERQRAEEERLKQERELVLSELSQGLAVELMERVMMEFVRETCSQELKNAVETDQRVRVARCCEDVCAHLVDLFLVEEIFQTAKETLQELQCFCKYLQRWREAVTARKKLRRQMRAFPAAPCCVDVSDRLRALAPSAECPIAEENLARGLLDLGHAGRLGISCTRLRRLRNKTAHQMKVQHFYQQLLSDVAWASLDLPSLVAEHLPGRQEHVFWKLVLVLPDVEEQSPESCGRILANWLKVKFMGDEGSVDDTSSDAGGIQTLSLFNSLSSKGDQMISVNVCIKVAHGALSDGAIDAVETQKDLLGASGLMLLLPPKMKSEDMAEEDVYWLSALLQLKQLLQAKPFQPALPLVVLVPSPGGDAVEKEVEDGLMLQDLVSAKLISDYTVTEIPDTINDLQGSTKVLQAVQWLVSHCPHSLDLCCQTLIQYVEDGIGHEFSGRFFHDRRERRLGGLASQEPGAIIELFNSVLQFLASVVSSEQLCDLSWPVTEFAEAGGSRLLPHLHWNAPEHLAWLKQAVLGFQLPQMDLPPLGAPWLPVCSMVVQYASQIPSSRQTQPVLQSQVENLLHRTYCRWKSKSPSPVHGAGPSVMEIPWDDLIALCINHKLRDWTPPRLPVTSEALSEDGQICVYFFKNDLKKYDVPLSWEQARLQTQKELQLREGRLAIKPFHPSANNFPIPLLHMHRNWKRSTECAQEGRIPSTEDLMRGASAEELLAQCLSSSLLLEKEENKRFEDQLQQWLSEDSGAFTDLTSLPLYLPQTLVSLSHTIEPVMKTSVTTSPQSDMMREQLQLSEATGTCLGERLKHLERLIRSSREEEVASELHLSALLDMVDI
UniProt O75487: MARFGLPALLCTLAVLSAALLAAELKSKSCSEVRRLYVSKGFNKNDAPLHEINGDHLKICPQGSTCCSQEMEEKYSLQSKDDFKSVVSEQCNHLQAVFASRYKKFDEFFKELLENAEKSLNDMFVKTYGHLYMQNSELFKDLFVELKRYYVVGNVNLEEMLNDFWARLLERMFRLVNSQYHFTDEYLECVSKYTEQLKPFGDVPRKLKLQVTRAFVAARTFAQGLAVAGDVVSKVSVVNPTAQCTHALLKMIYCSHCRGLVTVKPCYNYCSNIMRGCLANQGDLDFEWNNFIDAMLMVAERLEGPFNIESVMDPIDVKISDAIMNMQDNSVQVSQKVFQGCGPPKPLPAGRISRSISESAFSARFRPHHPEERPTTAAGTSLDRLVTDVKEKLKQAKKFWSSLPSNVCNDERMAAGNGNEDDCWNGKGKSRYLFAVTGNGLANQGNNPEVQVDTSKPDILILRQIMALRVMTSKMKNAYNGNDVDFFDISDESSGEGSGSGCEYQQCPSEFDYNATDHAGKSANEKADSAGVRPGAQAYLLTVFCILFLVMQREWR
UniProt O75521: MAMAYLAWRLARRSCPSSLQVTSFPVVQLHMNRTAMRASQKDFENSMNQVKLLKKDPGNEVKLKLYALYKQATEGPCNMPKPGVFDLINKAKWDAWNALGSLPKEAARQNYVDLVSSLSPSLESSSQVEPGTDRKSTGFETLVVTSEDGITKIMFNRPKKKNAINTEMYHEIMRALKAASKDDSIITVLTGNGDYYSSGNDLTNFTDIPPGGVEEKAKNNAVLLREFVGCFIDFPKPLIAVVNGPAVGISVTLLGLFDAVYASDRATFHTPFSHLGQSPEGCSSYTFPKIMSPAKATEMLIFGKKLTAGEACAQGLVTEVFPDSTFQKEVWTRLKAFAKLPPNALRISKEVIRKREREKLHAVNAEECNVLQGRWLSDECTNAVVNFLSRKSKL
UniProt O60313: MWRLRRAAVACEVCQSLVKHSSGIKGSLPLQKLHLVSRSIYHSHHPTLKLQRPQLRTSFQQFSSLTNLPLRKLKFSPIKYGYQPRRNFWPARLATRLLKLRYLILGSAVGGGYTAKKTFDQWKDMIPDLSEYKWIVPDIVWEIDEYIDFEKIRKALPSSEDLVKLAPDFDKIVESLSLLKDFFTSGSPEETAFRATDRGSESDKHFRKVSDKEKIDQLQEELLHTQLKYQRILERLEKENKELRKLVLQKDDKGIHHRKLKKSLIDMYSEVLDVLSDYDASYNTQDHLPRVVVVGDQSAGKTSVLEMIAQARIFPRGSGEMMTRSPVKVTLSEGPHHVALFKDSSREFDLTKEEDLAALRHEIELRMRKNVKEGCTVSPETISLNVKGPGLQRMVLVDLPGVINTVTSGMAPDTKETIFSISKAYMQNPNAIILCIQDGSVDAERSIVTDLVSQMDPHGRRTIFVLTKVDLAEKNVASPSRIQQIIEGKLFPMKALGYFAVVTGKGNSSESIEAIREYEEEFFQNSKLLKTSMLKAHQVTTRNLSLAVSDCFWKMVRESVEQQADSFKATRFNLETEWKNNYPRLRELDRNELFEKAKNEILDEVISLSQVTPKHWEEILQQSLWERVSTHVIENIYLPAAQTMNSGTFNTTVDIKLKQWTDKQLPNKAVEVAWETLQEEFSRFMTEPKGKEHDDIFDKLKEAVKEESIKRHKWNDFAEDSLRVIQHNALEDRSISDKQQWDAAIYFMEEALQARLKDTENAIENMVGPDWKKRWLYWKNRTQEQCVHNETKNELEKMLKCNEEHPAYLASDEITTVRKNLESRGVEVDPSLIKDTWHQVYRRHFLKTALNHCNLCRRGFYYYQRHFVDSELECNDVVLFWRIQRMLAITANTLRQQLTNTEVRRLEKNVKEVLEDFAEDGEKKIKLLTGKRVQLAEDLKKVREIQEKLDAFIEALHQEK
UniProt O60488: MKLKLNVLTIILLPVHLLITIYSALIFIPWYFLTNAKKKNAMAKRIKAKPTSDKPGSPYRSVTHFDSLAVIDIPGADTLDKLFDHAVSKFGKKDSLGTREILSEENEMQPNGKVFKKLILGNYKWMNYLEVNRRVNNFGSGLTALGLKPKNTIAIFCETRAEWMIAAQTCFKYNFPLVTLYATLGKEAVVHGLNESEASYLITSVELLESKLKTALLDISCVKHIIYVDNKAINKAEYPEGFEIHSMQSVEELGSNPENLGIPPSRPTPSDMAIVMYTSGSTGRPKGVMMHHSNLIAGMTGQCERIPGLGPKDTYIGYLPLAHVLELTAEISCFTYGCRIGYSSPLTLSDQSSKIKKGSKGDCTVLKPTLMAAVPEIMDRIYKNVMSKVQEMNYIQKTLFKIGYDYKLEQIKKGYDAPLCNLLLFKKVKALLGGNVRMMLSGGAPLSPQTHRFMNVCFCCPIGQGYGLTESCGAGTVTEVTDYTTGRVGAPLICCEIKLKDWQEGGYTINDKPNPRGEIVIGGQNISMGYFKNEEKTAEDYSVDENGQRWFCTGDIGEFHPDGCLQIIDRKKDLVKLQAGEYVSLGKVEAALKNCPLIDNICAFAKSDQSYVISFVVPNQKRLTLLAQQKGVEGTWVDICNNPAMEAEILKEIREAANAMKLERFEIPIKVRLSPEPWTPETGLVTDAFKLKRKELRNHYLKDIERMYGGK
UniProt O43583: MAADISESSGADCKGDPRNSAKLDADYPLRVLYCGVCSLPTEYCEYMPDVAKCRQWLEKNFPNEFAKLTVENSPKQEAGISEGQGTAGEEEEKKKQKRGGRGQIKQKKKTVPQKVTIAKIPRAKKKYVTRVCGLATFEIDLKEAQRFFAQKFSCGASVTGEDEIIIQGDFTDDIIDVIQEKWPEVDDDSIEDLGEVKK
UniProt O43663: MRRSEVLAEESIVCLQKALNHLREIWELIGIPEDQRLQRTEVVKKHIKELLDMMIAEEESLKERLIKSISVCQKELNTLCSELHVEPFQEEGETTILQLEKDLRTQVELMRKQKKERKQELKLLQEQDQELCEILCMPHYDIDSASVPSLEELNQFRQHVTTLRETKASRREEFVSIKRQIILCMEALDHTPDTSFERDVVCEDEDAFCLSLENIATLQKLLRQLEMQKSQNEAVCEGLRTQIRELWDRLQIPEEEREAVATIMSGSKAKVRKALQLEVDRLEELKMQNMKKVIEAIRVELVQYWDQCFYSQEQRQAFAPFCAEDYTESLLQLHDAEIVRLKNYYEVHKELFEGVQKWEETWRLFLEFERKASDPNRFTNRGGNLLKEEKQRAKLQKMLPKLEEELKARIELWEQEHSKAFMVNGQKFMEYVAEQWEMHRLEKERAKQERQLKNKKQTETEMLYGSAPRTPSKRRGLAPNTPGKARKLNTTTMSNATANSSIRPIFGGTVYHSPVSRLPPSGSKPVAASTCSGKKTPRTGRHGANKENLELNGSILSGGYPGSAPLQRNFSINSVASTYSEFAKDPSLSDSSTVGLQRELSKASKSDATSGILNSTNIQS
UniProt O60518: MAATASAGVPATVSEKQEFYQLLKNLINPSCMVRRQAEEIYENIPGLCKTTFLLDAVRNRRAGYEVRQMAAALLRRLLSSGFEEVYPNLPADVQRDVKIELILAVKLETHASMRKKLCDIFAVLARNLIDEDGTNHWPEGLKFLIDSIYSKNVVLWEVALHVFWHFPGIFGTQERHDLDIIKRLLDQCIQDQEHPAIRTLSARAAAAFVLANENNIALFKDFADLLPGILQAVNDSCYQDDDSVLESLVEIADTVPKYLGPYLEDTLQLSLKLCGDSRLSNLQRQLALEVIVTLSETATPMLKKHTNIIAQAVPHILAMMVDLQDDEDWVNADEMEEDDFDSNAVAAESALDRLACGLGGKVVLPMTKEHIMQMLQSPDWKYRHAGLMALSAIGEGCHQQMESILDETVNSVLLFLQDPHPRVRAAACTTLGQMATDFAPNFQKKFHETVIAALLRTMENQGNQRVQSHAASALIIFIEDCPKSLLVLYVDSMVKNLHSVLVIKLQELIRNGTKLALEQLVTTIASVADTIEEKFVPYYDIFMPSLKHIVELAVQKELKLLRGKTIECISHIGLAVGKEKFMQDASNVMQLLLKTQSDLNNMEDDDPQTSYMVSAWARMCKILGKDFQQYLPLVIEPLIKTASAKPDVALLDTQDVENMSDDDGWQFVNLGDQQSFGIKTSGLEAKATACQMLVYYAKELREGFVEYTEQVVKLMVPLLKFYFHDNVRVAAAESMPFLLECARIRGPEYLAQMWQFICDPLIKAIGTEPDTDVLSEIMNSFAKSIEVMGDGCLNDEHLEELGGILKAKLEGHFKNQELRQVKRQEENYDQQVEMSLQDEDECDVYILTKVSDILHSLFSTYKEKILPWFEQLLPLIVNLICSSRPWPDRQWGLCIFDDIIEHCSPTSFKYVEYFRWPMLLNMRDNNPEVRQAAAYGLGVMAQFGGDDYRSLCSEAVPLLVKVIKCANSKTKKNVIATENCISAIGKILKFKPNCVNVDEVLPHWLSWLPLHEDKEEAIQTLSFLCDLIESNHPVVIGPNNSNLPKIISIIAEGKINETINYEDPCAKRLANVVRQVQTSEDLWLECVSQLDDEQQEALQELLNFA

log2 ratio of iodoacetamide-alkyne labeling, inactive:
UniProt O75153_C333 -0.227
URB1 C1163 (UniProt O60287) -0.242
MCM3AP C274 (UniProt O60318) 0.0592
CSDE1 C53 (UniProt O75534) 0.252
RNGTT C97 (UniProt O60942) -0.0468
NCK2 C297 (UniProt O43639) 0.132
GPC4 C408 (UniProt O75487) 0.208
UniProt O43598_C26 0.13
CUTA C96 (UniProt O60888) -0.0692
UniProt O75521_C380 0.15
OPA1 C801 (UniProt O60313) 0.187
ACSL4 C420 (UniProt O60488) 0.122
DENR C132 (UniProt O43583) 0.226
HTATSF1 C295 (UniProt O43719) -0.332
EIF3G C25 (UniProt O75821) 0.108
PRC1 C322 (UniProt O43663) -0.179
OBSL1 C581 (UniProt O75147) 0.387
RANBP6 C48 (UniProt O60518) 0.348
SNRNP200 C1580 (UniProt O75643) 0.0837
ZW10 C588 (UniProt O43264) -0.0612
EIF5B C720 (UniProt O60841) -0.116
MRPS14 C91 (UniProt O60783) 0.0205

Reprinted at random: 2 entries already listed.
log2 ratio of iodoacetamide-alkyne labeling, inactive:
OPA1 C801 (UniProt O60313) 0.187
EIF3G C25 (UniProt O75821) 0.108
